Experimental data: publication PMC7979925

Assays:
Experiment in all cases: co-IP; lysates of CHO cells expressing Kv3.3 constructs (25 mM Tris-HCl pH 7.4, 150 mM NaCl, 1% NP-40, 1 mM EDTA, 5% glycerol); primary antibody overnight at 4 °C, protein A/G beads 2 h at 4 °C, six washes; Western blot
[1] = target: T1, Kv3.3 full length with C-terminal 6xHis tag (UniProt Q14003)
T1 sequence: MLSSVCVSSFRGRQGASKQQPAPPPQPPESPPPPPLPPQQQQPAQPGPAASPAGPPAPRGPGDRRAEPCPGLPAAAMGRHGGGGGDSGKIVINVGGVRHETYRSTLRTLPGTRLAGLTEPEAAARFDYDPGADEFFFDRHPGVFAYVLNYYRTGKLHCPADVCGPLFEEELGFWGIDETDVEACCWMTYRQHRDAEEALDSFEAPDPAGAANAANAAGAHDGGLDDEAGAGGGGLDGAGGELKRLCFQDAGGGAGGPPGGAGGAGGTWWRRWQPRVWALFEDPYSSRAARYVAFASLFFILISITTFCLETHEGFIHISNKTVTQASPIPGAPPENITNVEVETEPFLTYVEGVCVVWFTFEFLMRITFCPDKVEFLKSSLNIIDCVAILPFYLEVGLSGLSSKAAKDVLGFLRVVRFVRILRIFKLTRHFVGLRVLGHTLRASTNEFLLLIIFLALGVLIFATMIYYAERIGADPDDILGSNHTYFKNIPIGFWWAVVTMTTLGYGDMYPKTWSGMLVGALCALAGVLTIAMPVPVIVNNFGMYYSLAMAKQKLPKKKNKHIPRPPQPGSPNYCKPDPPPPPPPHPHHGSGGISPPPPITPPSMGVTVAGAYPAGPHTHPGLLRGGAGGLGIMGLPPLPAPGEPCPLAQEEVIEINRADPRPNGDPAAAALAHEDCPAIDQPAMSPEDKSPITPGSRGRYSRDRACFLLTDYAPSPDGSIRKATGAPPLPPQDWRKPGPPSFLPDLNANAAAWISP

[2] = target: T2, wild type Kv3.3 potassium channel (UniProt Q14003)
T2 sequence: T1 sequence

[3] = target: T3, G592R Kv3.3 mutant channel (UniProt Q14003)
T3 sequence: T1 sequence with G592R

Measured: binding

TANK-binding kinase 1 (Chinese hamster (endogenous in CHO)) (enzyme)
binds: all assays above

Residue numbers refer to the chain shown, from its start. No constants are given. Whether binding was seen depends on the method and setting. In cells and extracts the contact can be indirect. Binding calls can cover weak binding; strength is not graded here. For part of these data: Sequences can lack the tags named with a protein.
